Measurements reported in the supplement of paper PMC5407854, “Inhibitor of ppGalNAc-T3-mediated O-glycosylation blocks cancer cell invasiveness and lowers FGF23 levels” (eLife, 2017).
Over roughly 1,700 compounds, “T2 sensor activation Q score (MG/GFP ratio z-score vs DMSO controls)” has its median near 0.3; the highest 2% begin near 1.9. The list shows a part of the results.

The compounds below were run on ppGalNAc-T2 sensor (assay: T2 sensor activation Q score (MG/GFP ratio z-score vs DMSO controls) (SD units); higher = more sensor activation (inhibition of ppGalNAc-T2 glycosylation)). Conditions: HEK293 sensor cells; 10 µM; 6 h.
Method: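 Cells were treated with compound at 10 uM for 6 h, then MG/GFP ratio was read by flow cytometry (10,000 cells per well, duplicate wells). Q = (R - R_neg)/SD_neg relative to DMSO vehicle controls; the signal rises when the glycosyltransferase is inhibited.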

| SMILES | T2 sensor activation Q score |
| --- | --- |
| CCOC(=O)Nc1ccc2nc(N3CCCCCC3)sc2c1 | 0.95 |
| CC(C)(C)c1ccc(OC(=O)c2ccccc2)cc1 | 0.95 |
| CN=C1C=C/C(=N/N=c2/ccn(O)cc2C)C=C1C | 0.65 |
| Nc1nc(F)nc2c1ncn2C1OC(COP(=O)(O)O)C(O)C1O (centres undefined) | -0.75 |
| CCOC(=O)c1c(C)nc(C)c(C(=O)OCC)c1-c1cccnc1 | 0.2 |
| Cc1cc2c3ccccc3ncn2n1 | -0.25 |
| Cc1cc2c(c(C#N)c1C)NC=NC2C (centres undefined) | 1.1 |
| c1ccc2c(c1)Nc1ccncc1S2 | -0.35 |
| CN(C)c1ccc(N=Nc2cccc3ccoc23)cc1 | 1.45 |
| Cn1c(N)c(N=Nc2ccc(S(N)(=O)=O)cc2)c(=O)n(C)c1=O | 1.65 |
| COC(=O)c1ccc(Cn2cnc3c(Cl)ncnc32)cc1 | 1.6 |
| CN1CCN(C2=NCCO2)CC1 | -2.9 |
| CC(C)CCCCCCCCCCCCC(=O)NCC(=O)NC1C(C)OC(Nc2ncnc3nc[nH]c23)C(O)C1O (centres undefined) | 8.6 |
| CCCNC(=S)Nc1ccccc1 | -0.3 |
| O=C1NC(=S)S/C1=C\c1ccccc1C(=O)O | -1.45 |
| c1coc(CNc2ncnc3[nH]ncc23)c1 | 0.7 |
| CN1CCC(n2[nH]c(-c3ccccc3)c(Cc3ccccc3)c2=O)CC1 | -0.2 |
| CC1=Nc2ccccc2/C1=C\c1c(C)[nH]c2ccccc12 | -0.55 |
| COC(=O)N1C2CCCCC2=NN(c2ccccc2)N1C(=O)OC (centres undefined) | -1.9 |
| CCOc1ccc(NC(=O)c2cc3ccccc3cc2O)cc1 | 1.65 |
| CCOC(=O)Cc1csc2nc(-c3ccccc3)nn12 | 0.7 |
| N#CN=C(N)c1ccccc1 | 1 |
| O=C1c2cccc(Oc3ccccc3)c2C(=O)c2cccc(Oc3ccccc3)c21 | 0.25 |
| CCCCCCCC1(C)NC(=O)NC1=O (centres undefined) | 1.7 |
| Cc1c2cnccc2c(C)c2c1c1ccccc1n2CCOC(=O)c1ccccc1 | 0.1 |

Quoted at random: 6 entries already listed.

| SMILES | T2 sensor activation Q score |
| --- | --- |
| CCOc1ccc(NC(=O)c2cc3ccccc3cc2O)cc1 | 1.65 |
| Cn1c(N)c(N=Nc2ccc(S(N)(=O)=O)cc2)c(=O)n(C)c1=O | 1.65 |
| CCOC(=O)Cc1csc2nc(-c3ccccc3)nn12 | 0.7 |
| Cc1c2cnccc2c(C)c2c1c1ccccc1n2CCOC(=O)c1ccccc1 | 0.1 |
| COC(=O)c1ccc(Cn2cnc3c(Cl)ncnc32)cc1 | 1.6 |
| Nc1nc(F)nc2c1ncn2C1OC(COP(=O)(O)O)C(O)C1O (centres undefined) | -0.75 |

The listing continues.

| SMILES | T2 sensor activation Q score |
| --- | --- |
| Cc1nc(C(N)=O)nc2ccccc12 | 1.3 |
| C(=N\n1cnnc1)/c1ccc2c(c1)CCC2 | 0.4 |
| COC(=O)c1cc2c(n1S(=O)(=O)c1ccc(C)cc1)C(=O)C(=O)c1[nH]cc(C(=O)OCc3ccccc3)c1-2 | 2 |
| CC(C)(C)c1ccc(C(=O)Nc2ccc(S(N)(=O)=O)cc2)cc1 | 0.65 |
| COc1ccc(OC)c(NC(=O)c2cc3oc4ccccc4c3cc2O)c1 | 0 |
| Cn1ncc2c(Nc3ccc([N+](=O)[O-])cc3)nc(Cl)nc21 | -0.5 |
| Clc1nc(NCCc2ccccc2)c2cn[nH]c2n1 | 0.9 |
| CC[C@@]1(O)C(=O)OCc2c1cc1n(c2=O)Cc2cc3c(CN(C)C)c(O)ccc3nc2-1 | 0.9 |
| O=C1C2CC3N1CCC31c3ccccc3-n3c1c2ccc3=O (centres undefined) | 0.7 |
| CC(=O)O[C@]1(C(C)=O)CC[C@H]2[C@@H]3C=C(C)C4=CC(=O)CC[C@]4(C)[C@H]3CC[C@@]21C | -1.55 |
| Cc1nc2nc(C(F)(F)F)[nH]c2nc1C | 0.45 |
| Cc1c2oc3c(C)ccc(C(=O)N[C@@H]4C(=O)N[C@H](C(C)C)C(=O)N5CCC[C@H]5C(=O)N(C)CC(=O)N(C)[C@@H](C(C)C)C(=O)O[C@@H]4C)c3nc-2c(C(=O)N[C@@H]2C(=O)N[C@H](C(C)C)C(=O)N3CCC[C@H]3C(=O)N(C)CC(=O)N(C)[C@@H](C(C)C)C(=O)O[C@@H]2C)c(N)c1=O | -1.15 |
| O=C(Nc1ccc(Cl)c(Cl)c1)Nc1ccc([N+](=O)[O-])cn1 | 0.15 |
| COC(=O)C(=Cc1ccccc1[N+](=O)[O-])C(=O)OC | -1.4 |
| O=C1CSCc2nc3ccccc3n21 | 0.8 |
| Clc1nnc(NC2CCCCC2)c(Cl)c1Cl | 0.15 |
| Cc1ccc(-c2cc(C(=O)O)c3ccccc3n2)c(C)c1 | 0.9 |
| COc1ccccc1/C=C(\C#N)C(=O)O | 1.4 |
| C=CCNC(=O)C1COc2ccccc2O1 (centres undefined) | 0.5 |
| Cn1c2ccccc2c2ccc3c(c21)C(=O)C=CC3=O | -0.1 |
| Cc1c2cc(O)c(=O)cc-2oc2cc(O)c(O)cc12 | -3.95 |
| CCOC(=O)c1cc(-c2cccnc2)nc2c(Cl)cc(Cl)cc12 | 0.35 |
| CC(C)Cn1cnc2c(N)nc3ccccc3c21 | -0.8 |
| c1ccc(-c2nnc(-c3ccccc3)nn2)cc1 | 1.15 |
| O=C(Nc1ccccc1-c1ccccc1)C(=O)Nc1ccccc1-c1ccccc1 | 1.5 |

| SMILES | T2 sensor activation Q score |
| --- | --- |
| O=C(c1cccnc1)c1cc(-c2ccccn2)c(=O)n2ccccc12 | 0.3 |
| c1ccc(-c2n[nH]c(-c3ccccn3)n2)nc1 | -1.85 |
| CCCc1nc(NC(=O)c2ccccc2)nc(NC(=O)c2ccccc2)n1 | 0.9 |
| COc1cccc2c1C(CO)N1C(C#N)C3CC(C(=O)O)C(C1C2)N3C (centres undefined) | -0.75 |
| Nc1cnc(Nc2ccc(Br)cc2)nc1N | 0 |
| OCCCCc1nccc2c1[nH]c1ccccc12 | 1.15 |
| c1cc(CN2CCCNCCNCCCNCC2)ccc1CN1CCCNCCNCCCNCC1 | -1.75 |
| O=C(/C=C/c1ccc2ccccc2n1)c1cc(Cl)ccc1O | -0.65 |
| COC(=O)CC1(C(=O)OC)Nc2cc(Cl)c(Cl)cc2S(=O)(=O)N1O (centres undefined) | 0.65 |
| O=C(/C=C/C(=O)N1CCc2ccccc2C1)N1CCc2ccccc2C1 | -0.75 |
| CCOc1ccc(NC(=O)Nc2cc(C(C)C)ccc2C)cc1 | 1.15 |
| N#Cc1nnn2c1nc(N)c1c(Cl)cccc12 | 1.5 |
| COc1cc(NC(C)=O)c2ncccc2c1Br | 0.15 |
| O=C(Nc1ccc(F)cc1)OCCOc1ccc(Br)cc1 | 1.05 |
| CC1(C)CCSC(/C=C/c2ccccc2)=N1 | -1.15 |
| OCC1(CO)CC2(C1)CC(CO)(CO)C2 | 0.65 |
| Nc1nc(SCc2ccccc2)sc1C(=O)N1CCCCC1 | -0.35 |
| NCC(=O)CCC(=O)O | -1.95 |
| CCOCCc1c(O)nc(SC)[nH]c1=O | 0.65 |
| Cn1c(=O)c2[nH]c(COc3ccc(C(C)(C)C)cc3)nc2n(C)c1=O | 0.25 |
| COc1ccc2c(c1)C(=O)C1NC(=O)NC(=O)C1(Br)N2 (centres undefined) | 1.15 |
| NC(=O)c1cc2c3ccccc3ccn2c1-c1ccccc1 | 1.8 |
| COc1cccc(/C=C/c2nccc3ccccc23)c1OC | 1.25 |
| CC1CO/C(=C2\C(=O)OCC2C)C1 (centres undefined) | -0.65 |
| CC1CC(C)(C)NC2(CCCC2)N1 (centres undefined) | -0.55 |

| SMILES | T2 sensor activation Q score |
| --- | --- |
| COc1ccc2c(c1)CCN1C2CCN2C(=O)CCC21 (centres undefined) | 0.9 |
| COC(=NC(C)C)NC(C)C | -0.75 |
| Cc1nccnc1Sc1ccccc1 | -0.2 |
| CC(C)n1cnc2c(=S)nc[nH]c21 | -0.3 |
| COc1ccc2c(n1)Sc1nc3ccccc3nc1N2 | -5.6 |
| O=C(O)C1C2OC3C(OC(=O)C31)C2Br (centres undefined) | 0 |
| Cc1ccn(C)c(=N)c1 | 0.15 |
| C#CCSc1nnnn1-c1ccc(Br)c(C)c1 | -1.35 |
| Cn1c(N)c(C(=O)/C=C/c2ccccc2)c(=O)[nH]c1=O | 0.45 |
| NC1=NC(c2ccc(Cl)cc2)N(c2ccc(S(N)(=O)=O)cc2)C(N)=N1 (centres undefined) | 0.3 |
| Oc1ccc2ccccc2c1N=Nc1ccc(F)cc1 | 0.05 |
| Cc1nnc(-n2cccc2)s1 | 1.4 |
| O=C(C=Cc1ccccc1Cl)c1ccc(O)cc1 | 0.75 |
| COc1cc2c(NCCCCCO)ncnc2c(OC)c1OC | 0.4 |
| OC(c1cc(-c2ccc(Cl)cc2)nc2ccccc12)C1CCCCN1 (centres undefined) | 1.2 |
| O=C1/C(=C\c2ccc([N+](=O)[O-])cc2)CCc2ccccc21 | 0.65 |
| CNc1ncnc2c1cnn2C1CCCCO1 (centres undefined) | 0.05 |
| NC(=O)c1ccccc1NC(=O)c1ccccc1Cl | 0.55 |
| COc1ccc(Nc2cc(C)nc(N)n2)cc1 | -0.15 |
| O=P(O)(O)c1cc(-c2ccccc2)oc1-c1ccccc1 | 0.85 |
| Cc1nc(NCc2ccccc2)c2cc[nH]c2n1 | 0.3 |
| COc1cc(C(=O)C(=O)c2cc(OC)c(O)c(OC)c2)cc(OC)c1O | 0.45 |
| Cc1cc(O)c(C(C)C)cc1NC(=O)Nc1cccc2ccccc12 | 0.5 |
| CC(=O)[C@@]1(O)[C@H](C)C[C@H]2[C@@H]3C=C(C)C4=Cc5c(cnn5-c5ccccc5)C[C@]4(C)[C@H]3[C@@H](O)C[C@@]21C | 0.4 |
| COc1cc(Nc2c(C#N)cnc3cc(OCCCN4CCN(C)CC4)c(OC)cc23)c(Cl)cc1Cl | -1.6 |

| SMILES | T2 sensor activation Q score |
| --- | --- |
| CC12CCC(C(NC(=S)NN)C1=O)C2(C)C (centres undefined) | 0.6 |
| Cc1cnc2c(N)cc(C)c(C)c2c1 | 1.15 |
| CC(C)(C)c1ccc(OCC(=O)O)cc1 | 0.35 |
| c1ccc(-n2c3ccccc3c3ccccc32)cc1 | -0.3 |
| Cc1cc2cc3n(c2nn1)N=C(Cl)CC3 | 0.35 |
| O=C(Nc1cccc([N+](=O)[O-])c1)c1ccc2ccccc2c1O | 1.55 |
| CC(=NNC(N)=O)c1ccc(Cl)c(-n2cccc2)c1 | 0.6 |
| c1cc2c3c(cccc3c1)NC1(CCC3(CC1)Nc1cccc4cccc(c14)N3)N2 | 1.3 |
| CCCCCn1cnc2c(=S)nc(N)[nH]c21 | 0.5 |
| N#CN=CN1CC=C(c2ccc(Cl)cc2)CC1 | 0.6 |
| COc1ccc(C2=NC(=O)NC2c2ccc(OC)cc2)cc1 (centres undefined) | 1.25 |
| NCc1c(O)ccc2ccccc12 | -1 |
| O=C1OCC/C1=C\NCCCCCCCCN/C=C1\CCOC1=O | 0.8 |
| CCCCOc1nc2c(c(=O)n(C)c(=O)n2C)n1C | 1.8 |
| CCOc1ccc2sc(NS(=O)(=O)c3ccc(N)cc3)nc2c1 | -0.75 |
| O=C(Nc1ccc(Cl)cc1)c1cc2c(cc1O)[nH]c1ccccc12 | 1.6 |
| O=C(O)c1nn(-c2ccccc2-c2n[nH]c(=O)[nH]c2=O)c(=O)[nH]c1=O | -0.75 |
| S=C1SCN(CCc2ccccc2)CN1CCc1ccccc1 | 1.15 |
| O=[N+]([O-])c1cc([N+](=O)[O-])c2cccnc2c1O | -0.5 |
| CN(C)S(=O)(=O)c1ccc(N)c([N+](=O)[O-])c1 | 1.1 |
| [O-][n+]1ccc(CC(O)(C(F)(F)F)C(F)(F)F)cc1 | 1.2 |
| Cn1cnc([N+](=O)[O-])c1S(=O)(=O)Oc1cccc2ccccc12 | 0.3 |
| Oc1ccccc1-c1nnco1 | -0.35 |
| CCCCNCC1CCCO1 (centres undefined) | 0 |
